These are yes or no findings as the source states them, for the method shown. Binding seen in cells or lysates may run through a third protein. Some results given as binding are weak or reduced against the parent protein; the word gives no strength. Tags and fused reporters may be left off the sequences shown.
Experiments:
[1] = target: T1, Cdk-counteracting phosphatase Cdc14, 6HA-tagged (CDC14-6HA) (S. cerevisiae) (UniProt Q00684); assay: co-IP; Cdc14-HA immunoprecipitated with anti-HA magnetic beads (2 h, 4°C, NP-40 buffer) from cells at the metaphase arrest (cdc20 arrest, CDC20-AID); Top2-9PK analysed in the precipitate
T1 sequence: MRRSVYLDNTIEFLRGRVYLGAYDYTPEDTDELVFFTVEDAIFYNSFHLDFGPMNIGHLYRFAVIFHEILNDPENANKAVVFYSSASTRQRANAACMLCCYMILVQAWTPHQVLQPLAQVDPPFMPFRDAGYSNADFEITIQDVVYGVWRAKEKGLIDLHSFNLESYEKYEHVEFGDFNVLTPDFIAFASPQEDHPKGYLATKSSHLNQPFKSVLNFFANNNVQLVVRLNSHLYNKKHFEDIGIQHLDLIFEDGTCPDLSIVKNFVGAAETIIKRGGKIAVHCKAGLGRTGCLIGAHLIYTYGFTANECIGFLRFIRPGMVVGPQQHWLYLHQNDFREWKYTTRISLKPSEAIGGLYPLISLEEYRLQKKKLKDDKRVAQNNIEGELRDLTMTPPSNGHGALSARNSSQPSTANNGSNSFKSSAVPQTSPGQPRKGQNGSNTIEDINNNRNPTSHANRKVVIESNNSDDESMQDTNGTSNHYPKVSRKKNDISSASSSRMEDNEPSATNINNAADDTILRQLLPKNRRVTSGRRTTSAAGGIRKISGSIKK

[2] = target: T2, Polo-like kinase Cdc5, 3HA-tagged (GAL-3HACDC5) (S. cerevisiae) (UniProt P32562); assay: co-IP; Cdc5-HA immunoprecipitated with anti-HA magnetic beads (2 h, 4°C, NP-40 buffer) from cells arrested in metaphase (cdc20 arrest, CDC20-AID) after galactose induction of Cdc5; Top2-9PK analysed in the precipitate
T2 sequence: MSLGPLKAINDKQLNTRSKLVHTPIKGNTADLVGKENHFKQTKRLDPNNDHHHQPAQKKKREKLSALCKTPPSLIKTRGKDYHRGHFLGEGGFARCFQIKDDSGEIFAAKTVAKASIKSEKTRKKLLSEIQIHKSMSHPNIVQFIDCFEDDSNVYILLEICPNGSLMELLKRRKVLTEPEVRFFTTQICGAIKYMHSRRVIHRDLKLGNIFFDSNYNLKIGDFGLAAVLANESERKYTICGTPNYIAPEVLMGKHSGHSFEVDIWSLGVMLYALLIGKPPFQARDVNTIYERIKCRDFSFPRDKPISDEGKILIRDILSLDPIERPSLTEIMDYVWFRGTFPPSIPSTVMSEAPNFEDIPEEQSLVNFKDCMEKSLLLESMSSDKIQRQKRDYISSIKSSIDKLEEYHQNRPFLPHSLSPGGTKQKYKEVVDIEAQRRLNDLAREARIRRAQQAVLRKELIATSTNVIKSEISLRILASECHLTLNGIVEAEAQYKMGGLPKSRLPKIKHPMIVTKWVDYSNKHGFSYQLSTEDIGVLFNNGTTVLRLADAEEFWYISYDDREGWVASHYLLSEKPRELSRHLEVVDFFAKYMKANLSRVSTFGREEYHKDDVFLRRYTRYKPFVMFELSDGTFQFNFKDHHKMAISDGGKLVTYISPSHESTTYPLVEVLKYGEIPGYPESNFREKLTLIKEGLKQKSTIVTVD

[3] = target: T1, Cdk-counteracting phosphatase Cdc14, 6HA-tagged (CDC14-6HA) (S. cerevisiae); assay: co-IP; Cdc14-HA immunoprecipitated with anti-HA magnetic beads (2 h, 4°C, NP-40 buffer) from cells 45 min after release from the metaphase block, when 80% cells are in early anaphase; Top2-9PK analysed in the precipitate

B1: Topoisomerase II (Top2), TOP2-9PK fusion (enzyme, UniProt P06786 1-1428)
chain: MSTEPVSASDKYQKISQLEHILKRPDTYIGSVETQEQLQWIYDEETDCMIEKNVTIVPGLFKIFDEILVNAADNKVRDPSMKRIDVNIHAEEHTIEVKNDGKGIPIEIHNKENIYIPEMIFGHLLTSSNYDDDEKKVTGGRNGYGAKLCNIFSTEFILETADLNVGQKYVQKWENNMSICHPPKITSYKKGPSYTKVTFKPDLTRFGMKELDNDILGVMRRRVYDINGSVRDINVYLNGKSLKIRNFKNYVELYLKSLEKKRQLDNGEDGAAKSDIPTILYERINNRWEVAFAVSDISFQQISFVNSIATTMGGTHVNYITDQIVKKISEILKKKKKKSVKSFQIKNNMFIFINCLIENPAFTSQTKEQLTTRVKDFGSRCEIPLEYINKIMKTDLATRMFEIADANEENALKKSDGTRKSRITNYPKLEDANKAGTKEGYKCTLVLTEGDSALSLAVAGLAVVGRDYYGCYPLRGKMLNVREASADQILKNAEIQAIKKIMGLQHRKKYEDTKSLRYGHLMIMTDQDHDGSHIKGLIINFLESSFPGLLDIQGFLLEFITPIIKVSITKPTKNTIAFYNMPDYEKWREEESHKFTWKQKYYKGLGTSLAQEVREYFSNLDRHLKIFHSLQGNDKDYIDLAFSKKKADDRKEWLRQYEPGTVLDPTLKEIPISDFINKELILFSLADNIRSIPNVLDGFKPGQRKVLYGCFKKNLKSELKVAQLAPYVSECTAYHHGEQSLAQTIIGLAQNFVGSNNIYLLLPNGAFGTRATGGKDAAAARYIYTELNKLTRKIFHPADDPLYKYIQEDEKTVEPEWYLPILPMILVNGAEGIGTGWSTYIPPFNPLEIIKNIRHLMNDEELEQMHPWFRGWTGTIEEIEPLRYRMYGRIEQIGDNVLEITELPARTWTSTIKEYLLLGLSGNDKIKPWIKDMEEQHDDNIKFIITLSPEEMAKTRKIGFYERFKLISPISLMNMVAFDPHGKIKKYNSVNEILSEFYYVRLEYYQKRKDHMSERLQWEVEKYSFQVKFIKMIIEKELTVTNKPRNAIIQELENLGFPRFNKEGKPYYGSPNDEIAEQINDVKGATSDEEDEESSHEDTENVINGPEELYGTYEYLLGMRIWSLTKERYQKLLKQKQEKETELENLLKLSAKDIWNTDLKAFEVGYQEFLQRDAEARGGNVPNKGSKTKGKGKRKLVDDEDYDPSKKNKKSTARKGKKIKLEDKNFERILLEQKLVTKSKAPTKIKKEKTPSVSETKTEEEENAPSSTSSSSIFDIKKEDKDEGELSKISNKFKKISTIFDKMGSTSATSKENTPEQDDVATKKNQTTAKKTAVKPKLAKKPVRKQQKVVELSGESDLEILDSYTDREDSNKDEDDAIPQRSRRQRSSRAASVPKKSYVETLELSDDSFIEDDEEENQGSDVSFNEED
- binding [1]: binds weakly
- binding [2]: binds
- binding [3]: binds

From PMC12802923
